US20240301000A1 (SHENZHEN WINKEY TECHNOLOGY CO., LTD, priority 2021, published 2024)

Experiment: general procedure: Fmoc solid-phase peptide synthesis; 2-Cl-Trt resin (cross-linking degree 1%, substitution degree 1.24 mmol/g); DIC/HOBt
Conditions: whole synthesis

| Substance | crude purity (method not given) [%] | final purity (method not given) [%] |
| --- | --- | --- |
| PEPTIDE1{[NA].[Pro].[Lys].[Glu].[Lys]}$$$$V2.0 | 85 | 97.97 |
| PEPTIDE1{[KA-CO].[Pro].[Lys].[Glu].[Lys]}$$$$V2.0 | 83.5 | 97.34 |
| TXC-Pro-Lys-Glu-Lys-OH | 87 | 96.50 |

HELM strings list residues between dots; [ac] is acetyl, [am] amide, other brackets name non-standard units.
